This list was built around the results that the source calls inconclusive (neither active nor inactive); the mix of calls is not that of the screen. Potencies of inconclusive entries are doubtful fits and often do not repeat. Calls of active or inactive are those of the source. How the source made its calls: active means hit-call score of the fitted dose curve at least 0.9, where 1 is the maximum; inconclusive means response in the unintended direction; inactive means score below 0.9.
Biological target: rat Glutamate Metabotropic Receptor 5 (MGluR5), Grm5 (gene 24418) (UniProt P31424)
Test: NVS_GPCR_rmMGluR5: NovaScreen (NVS) G Protein-Coupled Receptor Assay for rat Glutamate Metabotropic Receptor 5 (MGluR5) (AID 2283307)
Protocol: NVS_GPCR_rmMGluR5 is a biochemical, single-readout assay that uses extracted gene-proteins from Rat whole brain in a tissue-based cell-free assay. Measurements were taken 1.5 hours after chemical dosing in a 48-well plate.NVS_GPCR_rmMGluR5 is one of one assay component(s) measured or calculated from the NVS_GPCR_rmMGluR5 assay. It is designed to make measurements of radioligand binding, a form of binding reporter, as detected with scintillation counting signals by Filter-based radiodetection technology.Data from the assay component NVS_GPCR_rmMGluR5 was analyzed into 1 assay endpoint. This assay endpoint, NVS_GPCR_rmMGluR5, was analyzed in the positive analysis fitting direction relative to DMSO as the negative control and baseline of activity. Using a type of binding reporter, loss-of-signal activity can be used to understand changes in the binding as they relate to the gene Grm5. Furthermore, this assay endpoint can be referred to as a primary readout, because the performed assay has only produced 1 assay endpoint. To generalize the intended target to other relatable targets, this assay endpoint is annotated to the gpcr intended target family, where the subfamily is metabotropic glutamate receptor.
Binding assays used specific radioligands (tritiated, iodinated) with non-radioactive competitive displacement ligands in agonist or antagonist protocols (as indicated) and various reference compounds and inhibitors to titrate specific binding to receptors and transporters. Most enzyme assays (CYPs, kinases, phosphatases, proteases, HDACs) used recombinant protein and specific substrates (fluorescence mostly, some colorimetric and radioactive) and inhibitors, followed by a biochemical separation of substrate and product. All assays for the biochemical HTS were initially run in duplicate at a single concentration (10 uM for CYP450 assays and 25 uM for all others). Assay-chemical combinations meeting a pre-defined threshold (e.g., 30% inhibition and other criteria defined below) were then run in singleton concentration-response format with maximum concentration of 20 uM for CYPs and 50 uM for all others. Each assay was run with positive and negative controls, and concurrent controls on every plate. The follow-up (secondary) screen tested active chemical-pairs in concentration series, as well as a few additional assays not tested in the primary screen, some selected negative inactives, and several cases re-run in the concentration series for confirmatory purposes.

Sequences of proteins named here, by UniProt entry; tags and fusion partners are left off.
UniProt P31424, whole entry, looked up: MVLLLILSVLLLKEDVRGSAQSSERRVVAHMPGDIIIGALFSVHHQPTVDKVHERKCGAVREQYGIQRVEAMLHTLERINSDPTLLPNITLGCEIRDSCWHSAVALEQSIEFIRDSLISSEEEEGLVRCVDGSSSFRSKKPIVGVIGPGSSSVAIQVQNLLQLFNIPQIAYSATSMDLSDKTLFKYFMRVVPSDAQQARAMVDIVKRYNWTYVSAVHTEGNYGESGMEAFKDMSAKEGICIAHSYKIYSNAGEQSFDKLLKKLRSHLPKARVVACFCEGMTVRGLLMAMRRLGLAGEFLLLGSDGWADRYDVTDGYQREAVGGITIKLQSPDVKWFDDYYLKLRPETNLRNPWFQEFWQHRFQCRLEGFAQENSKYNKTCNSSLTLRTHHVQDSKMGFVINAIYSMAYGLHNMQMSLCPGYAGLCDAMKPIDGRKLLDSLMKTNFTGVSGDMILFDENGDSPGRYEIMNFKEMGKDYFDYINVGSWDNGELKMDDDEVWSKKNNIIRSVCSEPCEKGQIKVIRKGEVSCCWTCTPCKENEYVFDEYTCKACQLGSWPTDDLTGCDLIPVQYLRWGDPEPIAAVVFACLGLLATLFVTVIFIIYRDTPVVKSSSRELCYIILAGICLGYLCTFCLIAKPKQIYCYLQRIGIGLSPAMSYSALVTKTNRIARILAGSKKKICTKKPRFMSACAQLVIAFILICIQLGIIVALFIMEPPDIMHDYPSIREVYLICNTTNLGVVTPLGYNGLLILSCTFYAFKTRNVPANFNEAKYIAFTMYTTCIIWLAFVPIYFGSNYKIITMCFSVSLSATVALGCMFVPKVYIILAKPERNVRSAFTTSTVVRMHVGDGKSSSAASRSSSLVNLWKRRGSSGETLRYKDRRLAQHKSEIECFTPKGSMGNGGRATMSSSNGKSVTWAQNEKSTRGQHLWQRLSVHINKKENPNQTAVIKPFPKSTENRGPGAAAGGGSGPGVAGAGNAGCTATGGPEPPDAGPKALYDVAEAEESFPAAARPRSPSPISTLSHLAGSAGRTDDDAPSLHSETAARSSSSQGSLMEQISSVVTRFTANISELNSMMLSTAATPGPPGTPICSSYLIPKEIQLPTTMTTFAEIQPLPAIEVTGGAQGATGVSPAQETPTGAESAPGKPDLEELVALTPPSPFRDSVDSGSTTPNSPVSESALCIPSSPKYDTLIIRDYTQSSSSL

Row | Compound | AC50 | outcome
1 | Cc1cc(C)nc(NC(=O)NS(=O)(=O)c2ccccc2C(=O)OC2COC2)n1 | inconclusive: 0.0878 µM | 
2 | CCCCOC(=O)c1ccccc1C(=O)O | inconclusive: 0.0602 µM | 
3 | Clc1ccccc1Cl | inconclusive: 25 µM | 
4 | CNC(=O)CSP(=S)(OC)OC | inconclusive: 1.66 µM | 
5 | CCCCCCCCc1ccc(O)cc1 | inconclusive: 25.1 µM | 
6 | CCN(CC)CCO |  | inactive
7 | CCCCC(C#N)(Cn1cncn1)c1ccc(Cl)cc1 (stereo unspecified) | inconclusive: 1.1 µM | 
8 | ClC1C(Cl)C(Cl)C(Cl)C(Cl)C1Cl (stereo unspecified) | inconclusive: 25 µM | 
9 | OC(c1ccc(Cl)cc1)(c1cncnc1)c1ccccc1Cl (stereo unspecified) | inconclusive: 1.34 µM | 
10 | Cc1cccc(N)c1N | inconclusive: 15.6 µM | 
11 | CC(C)Nc1nc(Cl)nc(NC(C)C)n1 | inconclusive: 5.71 µM | 

Quoted from above: nos. 9 to 10
Row | Compound | AC50 | outcome
9 | OC(c1ccc(Cl)cc1)(c1cncnc1)c1ccccc1Cl (stereo unspecified) | inconclusive: 1.34 µM | 
10 | Cc1cccc(N)c1N | inconclusive: 15.6 µM | 
